Experimental data: publication PMC7075923

What was measured:
[1] = molecular target: T1, p7A-Ct[GFP] (Melon necrotic spot virus) (UniProt Q8V993); test: split reporter; BiFC with GFP fragments 1-155 and 156-238; co-expression by agroinfiltration in N. benthamiana leaves; epidermal cells viewed by confocal microscopy three days after agroinfiltration
T1 sequence: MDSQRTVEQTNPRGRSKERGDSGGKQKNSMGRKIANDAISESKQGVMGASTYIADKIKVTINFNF

[2] = molecular target: T2, Ct[GFP]-p7A (Melon necrotic spot virus) (UniProt Q8V993); test: as above
T2 sequence: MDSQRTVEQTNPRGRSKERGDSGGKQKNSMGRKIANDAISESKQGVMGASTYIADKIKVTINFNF

[3] = molecular target: T3, Nt[GFP]-p7A (Melon necrotic spot virus) (UniProt Q8V993); test: as above
T3 sequence: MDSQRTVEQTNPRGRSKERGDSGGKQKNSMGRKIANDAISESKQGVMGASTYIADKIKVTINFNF

[4] = molecular target: T4, p7A-Nt[GFP] (Melon necrotic spot virus) (UniProt Q8V993); test: as above
T4 sequence: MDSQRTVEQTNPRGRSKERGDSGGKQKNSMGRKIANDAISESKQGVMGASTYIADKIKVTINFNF

[5] = molecular target: T5, MNSV p7A (DGBp1 of Melon necrotic spot virus), Gal4 fusion (Melon necrotic spot virus) (UniProt Q8V993); test: two-hybrid; GAL4 […] system, yeast AH109; DGBp1s and their fnf mutants as Gal4-BD fusions against full-length Arabidopsis ORFs as Gal4-AD fusions; controls pBD-p53 and pAC-ILR3; growth on SD + DO-A-H-L-W + X-alpha Gal
T5 sequence: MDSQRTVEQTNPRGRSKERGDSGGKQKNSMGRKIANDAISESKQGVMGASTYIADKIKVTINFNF

[6] = molecular target: T6, p7A^Ct (MNSV p7A lacking residues 45 to 65), Gal4-BD fusion (Melon necrotic spot virus) (UniProt Q8V993); test: two-hybrid; GAL4 […] system, yeast AH109; DGBp1 or p7A mutants as Gal4-BD fusions (pGBKT7) against pAC-p7A or pAC-p7 (pACT2); growth on SD + DO-A-H-L-W + X-alpha Gal (HIS3, ADE2, MEL1 reporters)
T6 sequence: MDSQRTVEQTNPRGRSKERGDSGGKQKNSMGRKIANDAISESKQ

[7] = molecular target: T7, p7A^Nt (MNSV p7A lacking residues 1 to 22), Gal4-BD fusion (Melon necrotic spot virus) (UniProt Q8V993); test: as above
T7 sequence: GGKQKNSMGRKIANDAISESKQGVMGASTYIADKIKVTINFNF

[8] = molecular target: T5, MNSV p7A (DGBp1 of Melon necrotic spot virus), Gal4 fusion (Melon necrotic spot virus); test: as above
[9] = molecular target: CarMV p7 (DGBp1 of Carnation mottle virus), Gal4 fusion (Carnation mottle virus); test: two-hybrid; GAL4 […] system, yeast AH109; DGBp1s and their fnf mutants as Gal4-BD fusions against full-length Arabidopsis ORFs as Gal4-AD fusions; controls pBD-p53 and pAC-ILR3; growth on SD + DO-A-H-L-W + X-alpha Gal
[10] = molecular target: TCV p8 (DGBp1 of Turnip crinkle virus), Gal4-BD fusion (Turnip crinkle virus); test: as above
[11] = molecular target: p8-Ct[GFP] (Turnip crinkle virus); test: split reporter; BiFC with GFP fragments 1-155 and 156-238; co-expression by agroinfiltration in N. benthamiana leaves; epidermal cells viewed by confocal microscopy three days after agroinfiltration
[12] = molecular target: Ct[GFP]-p7 (Carnation mottle virus); test: as above
[13] = molecular target: p7-Ct[GFP] (Carnation mottle virus); test: as above
[14] = molecular target: Ct[GFP]-p8 (Turnip crinkle virus); test: as above
[15] = molecular target: p7-Nt[GFP] (Carnation mottle virus); test: as above
[16] = molecular target: p8-Nt[GFP] (Turnip crinkle virus); test: as above
[17] = molecular target: Nt[GFP]-p8 (Turnip crinkle virus); test: as above
[18] = molecular target: Nt[GFP]-p7 (Carnation mottle virus); test: as above

eIF3g1-Nt[GFP] (Arabidopsis)
binding [1]: no binding
binding [2]: binds

eIF3g1 fused to Ct[GFP] (Arabidopsis)
binding [3]: binds
binding [4]: no binding

eIF3g2, Gal4 fusion (Arabidopsis)
binding [5]: no binding

subunit G of the eukaryotic translation initiation factor 3 (eIF3g1), Gal4-AD fusion (Arabidopsis)
binding [5]: binds

CarMV p7 (DGBp1 of Carnation mottle virus), Gal4 fusion
binding [6]: no binding
binding [7]: binds
binding [8]: binds

B1: 60 S acidic ribosomal protein P3 (RPP3A), Gal4-AD fusion (protein, UniProt Q9SVZ6 1-119)
chain: MGVFTFVCKNGGGAWSAKQHEGELESSASSTYELQRKLVQVSLSADSSGGVQSSFSLVSPTSAVFQVIVGGGGGGGFSAGGAASSGGGAGEAAAAPKEDEKKKEESEEEEGDFGFDLFG
binding [9]: binds
binding [10]: binds

B2: RPP3A-Nt[GFP] (protein, UniProt Q9SVZ6 1-119)
chain: MGVFTFVCKNGGGAWSAKQHEGELESSASSTYELQRKLVQVSLSADSSGGVQSSFSLVSPTSAVFQVIVGGGGGGGFSAGGAASSGGGAGEAAAAPKEDEKKKEESEEEEGDFGFDLFG
binding [11]: no binding
binding [12]: binds
binding [13]: no binding
binding [14]: binds

B3: RPP3A fused to Ct[GFP] (protein, UniProt Q9SVZ6 1-119)
chain: MGVFTFVCKNGGGAWSAKQHEGELESSASSTYELQRKLVQVSLSADSSGGVQSSFSLVSPTSAVFQVIVGGGGGGGFSAGGAASSGGGAGEAAAAPKEDEKKKEESEEEEGDFGFDLFG
binding [15]: no binding
binding [16]: no binding
binding [17]: binds
binding [18]: binds

B4: RPP3B, Gal4 fusion (protein, UniProt Q9LVC9 1-120)
chain: MGVFSFVCKSKGGEWTAKQHEGDLEASASSTYDLQRKLVQTALSADSSGGVQSSFSLVSPTSAVFVVVIGGGGGGGFAAGGGAAAGGGGGGEAAAATKEEEKKKEESEEEEGDFGFDLFG
binding [9]: no binding
binding [10]: no binding

Results are given in words; binding and its absence hold for the method and conditions named. For part of these data: A result given as binding can be weak or reduced; the word gives no strength. Tags and fused reporters may be left off the sequences shown. For part of these data: Binding seen in cells or lysates may run through a third protein.
